Literature values in PMC8623179, “Design and Microwave Synthesis of New (5Z) 5-Arylidene-2-thioxo-1,3-thiazolinidin-4-one and (5Z) 2-Amino-5-arylidene-1,3-thiazol-4(5H)-one as New Inhibitors of Protein Kinase DYRK1A” (Pharmaceuticals, 2021).
Like-named read-outs stand apart in the source and are kept apart here.

Test system: GSK-3α/β
Details: read-out: IC50 GSK3α/β, positive control, cited from earlier work

In the case of `CC[C@H](CO)Nc1nc(NCc2ccccc2)c2ncn(C(C)C)c2n1` [(R)-Roscovitine], the IC50 (Table 4) is listed as 130 µM and the IC50 (Table 5, same values as Table 4) is listed as 130 µM.
